From paper PMC4070648
No constants are given. Whether binding was seen depends on the method and setting. In cells and extracts the contact can be indirect. Some binding calls cover weakened binding; strength is not graded here.

The chains behind the UniProt entries cited, without tags or fusion partners.
UniProt Q460N5: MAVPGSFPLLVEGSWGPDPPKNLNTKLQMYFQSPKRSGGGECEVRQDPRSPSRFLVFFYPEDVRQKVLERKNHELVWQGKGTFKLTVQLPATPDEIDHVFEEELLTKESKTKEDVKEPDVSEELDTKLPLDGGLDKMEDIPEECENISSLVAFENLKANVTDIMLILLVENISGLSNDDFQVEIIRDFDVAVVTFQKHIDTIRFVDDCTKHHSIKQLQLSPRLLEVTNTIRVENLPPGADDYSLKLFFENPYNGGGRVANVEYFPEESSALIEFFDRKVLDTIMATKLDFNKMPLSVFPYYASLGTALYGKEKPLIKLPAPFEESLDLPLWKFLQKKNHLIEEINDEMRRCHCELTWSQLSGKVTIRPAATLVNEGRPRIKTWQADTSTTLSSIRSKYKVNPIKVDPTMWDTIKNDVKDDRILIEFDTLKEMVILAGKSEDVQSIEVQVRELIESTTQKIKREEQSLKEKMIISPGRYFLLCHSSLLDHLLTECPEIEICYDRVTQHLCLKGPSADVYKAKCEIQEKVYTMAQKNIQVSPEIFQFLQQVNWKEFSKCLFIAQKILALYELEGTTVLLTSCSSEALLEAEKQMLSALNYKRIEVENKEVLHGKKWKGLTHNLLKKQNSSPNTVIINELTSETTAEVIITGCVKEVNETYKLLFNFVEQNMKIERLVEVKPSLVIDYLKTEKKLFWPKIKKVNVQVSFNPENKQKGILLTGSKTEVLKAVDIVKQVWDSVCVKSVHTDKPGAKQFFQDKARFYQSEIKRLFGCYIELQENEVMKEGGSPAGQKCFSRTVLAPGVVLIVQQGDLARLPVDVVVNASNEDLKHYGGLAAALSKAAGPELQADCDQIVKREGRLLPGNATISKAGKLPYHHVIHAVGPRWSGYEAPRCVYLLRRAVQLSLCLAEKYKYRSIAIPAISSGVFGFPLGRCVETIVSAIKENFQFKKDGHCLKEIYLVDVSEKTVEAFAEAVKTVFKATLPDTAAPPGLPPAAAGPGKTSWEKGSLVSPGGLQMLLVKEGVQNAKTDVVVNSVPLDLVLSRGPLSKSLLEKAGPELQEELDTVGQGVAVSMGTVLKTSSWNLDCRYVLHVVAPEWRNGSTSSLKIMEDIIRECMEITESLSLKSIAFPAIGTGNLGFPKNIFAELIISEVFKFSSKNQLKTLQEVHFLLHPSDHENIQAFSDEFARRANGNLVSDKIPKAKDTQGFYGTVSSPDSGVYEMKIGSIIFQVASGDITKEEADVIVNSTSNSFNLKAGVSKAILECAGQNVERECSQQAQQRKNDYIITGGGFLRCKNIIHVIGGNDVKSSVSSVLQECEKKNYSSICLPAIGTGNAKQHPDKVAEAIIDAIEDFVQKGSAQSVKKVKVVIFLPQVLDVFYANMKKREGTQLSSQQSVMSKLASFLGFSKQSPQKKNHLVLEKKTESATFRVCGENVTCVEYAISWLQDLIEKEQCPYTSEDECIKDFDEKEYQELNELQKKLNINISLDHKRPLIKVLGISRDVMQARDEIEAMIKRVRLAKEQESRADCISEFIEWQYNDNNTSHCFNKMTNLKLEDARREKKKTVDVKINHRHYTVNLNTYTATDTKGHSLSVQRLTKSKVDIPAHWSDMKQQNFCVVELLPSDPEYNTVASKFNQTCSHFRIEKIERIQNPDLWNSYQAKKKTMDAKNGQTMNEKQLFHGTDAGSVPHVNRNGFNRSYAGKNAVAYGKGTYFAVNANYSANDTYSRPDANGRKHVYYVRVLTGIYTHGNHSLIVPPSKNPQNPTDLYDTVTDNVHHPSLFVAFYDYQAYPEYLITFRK

What was measured:
[1] = target: mono-ADP-ribosyltransferase ARTD8 (human (endogenous in PC3)) (UniProt Q460N5); test: co-IP; endogenous ARTD8 complexes precipitated from PC3 cell extracts with epitope affinity purified anti-ARTD8 antibodies; no ADP-ribose added; immunoblot
[2] = target: diphtheria-toxin-like macrodomain containing ADP-ribosyltransferase-9 (ARTD9) (human (endogenous in PC3)) (UniProt Q8IXQ6); test: co-IP; endogenous ARTD9 complexes precipitated from PC3 cell extracts with anti-ARTD9 antibody covalently coupled to tosyl-activated Dynabeads; cells stimulated 1 h with IFNγ (200 U/ml) in Figure 2H and S5E; no ADP-ribose added; immunoblot

binding [1]: binds
B1: ARTD10 (protein, UniProt Q53GL7 1-1025)
chain: MVAMAEAEAGVAVEVRGLPPAVPDELLTLYFENRRRSGGGPVLSWQRLGCGGVLTFREPADAERVLAQADHELHGAQLSLRPAPPRAPARLLLQGLPPGTTPQRLEQHVQALLRASGLPVQPCCALASPRPDRALVQLPKPLSEADVRVLEEQAQNLGLEGTLVSLARVPQARAVRVVGDGASVDLLLLELYLENERRSGGGPLEDLQRLPGPLGTVASFQQWQVAERVLQQEHRLQGSELSLVPHYDILEPEELAENTSGGDHPSTQGPRATKHALLRTGGLVTALQGAGTVTMGSGEEPGQSGASLRTGPMVQGRGIMTTGSGQEPGQSGTSLRTGPMGSLGQAEQVSSMPMGSLEHEGLVSLRPVGLQEQEGPMSLGPVGSAGPVETSKGLLGQEGLVEIAMDSPEQEGLVGPMEITMGSLEKAGPVSPGCVKLAGQEGLVEMVLLMEPGAMRFLQLYHEDLLAGLGDVALLPLEGPDMTGFRLCGAQASCQAAEEFLRSLLGSISCHVLCLEHPGSARFLLGPEGQHLLQGLEAQFQCVFGTERLATATLDTGLEEVDPTEALPVLPGNAHTLWTPDSTGGDQEDVSLEEVRELLATLEGLDLDGEDWLPRELEEEGPQEQPEEEVTPGHEEEEPVAPSTVAPRWLEEEAALQLALHRSLEPQGQVAEQEEAAALRQALTLSLLEQPPLEAEEPPDGGTDGKAQLVVHSAFEQDVEELDRALRAALEVHVQEETVGPWRRTLPAELRARLERCHGVSVALRGDCTILRGFGAHPARAARHLVALLAGPWDQSLAFPLAASGPTLAGQTLKGPWNNLERLAENTGEFQEVVRAFYDTLDAARSSIRVVRVERVSHPLLQQQYELYRERLLQRCERRPVEQVLYHGTTAPAVPDICAHGFNRSFCGRNATVYGKGVYFARRASLSVQDRYSPPNADGHKAVFVARVLTGDYGQGRRGLRAPPLRGPGHVLLRYDSAVDCICQPSIFVIFHDTQALPTHLITCEHVPRASPDDPSGLPGRSPDT
binding [2]: binds
